# Some of the results follow.
# Sequences of proteins named here, by UniProt entry; tags and fusion partners are left off. A change or cut given only in a name is not applied to a line headed by its entry.
# UniProt Q15048: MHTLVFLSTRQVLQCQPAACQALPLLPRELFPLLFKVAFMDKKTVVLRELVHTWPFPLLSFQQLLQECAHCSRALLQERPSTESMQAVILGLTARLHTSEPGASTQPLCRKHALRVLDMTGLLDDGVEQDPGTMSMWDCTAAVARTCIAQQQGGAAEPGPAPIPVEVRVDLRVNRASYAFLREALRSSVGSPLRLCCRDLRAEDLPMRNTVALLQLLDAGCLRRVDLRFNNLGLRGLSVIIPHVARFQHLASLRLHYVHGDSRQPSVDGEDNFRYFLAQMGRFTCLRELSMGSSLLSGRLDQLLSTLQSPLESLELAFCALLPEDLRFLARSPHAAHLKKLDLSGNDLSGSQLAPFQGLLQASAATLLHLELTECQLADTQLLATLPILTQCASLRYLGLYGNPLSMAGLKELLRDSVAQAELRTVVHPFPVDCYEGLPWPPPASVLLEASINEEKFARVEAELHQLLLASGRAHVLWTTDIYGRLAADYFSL
# UniProt Q52LA3: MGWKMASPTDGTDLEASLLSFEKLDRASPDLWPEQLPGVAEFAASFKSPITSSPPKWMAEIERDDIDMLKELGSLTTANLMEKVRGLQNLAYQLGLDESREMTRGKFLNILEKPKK
# UniProt Q9BQD3: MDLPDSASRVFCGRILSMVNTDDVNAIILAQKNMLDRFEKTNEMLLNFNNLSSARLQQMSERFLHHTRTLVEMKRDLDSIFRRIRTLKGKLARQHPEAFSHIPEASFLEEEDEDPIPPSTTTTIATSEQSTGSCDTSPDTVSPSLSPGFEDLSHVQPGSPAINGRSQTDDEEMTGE
# UniProt P13473: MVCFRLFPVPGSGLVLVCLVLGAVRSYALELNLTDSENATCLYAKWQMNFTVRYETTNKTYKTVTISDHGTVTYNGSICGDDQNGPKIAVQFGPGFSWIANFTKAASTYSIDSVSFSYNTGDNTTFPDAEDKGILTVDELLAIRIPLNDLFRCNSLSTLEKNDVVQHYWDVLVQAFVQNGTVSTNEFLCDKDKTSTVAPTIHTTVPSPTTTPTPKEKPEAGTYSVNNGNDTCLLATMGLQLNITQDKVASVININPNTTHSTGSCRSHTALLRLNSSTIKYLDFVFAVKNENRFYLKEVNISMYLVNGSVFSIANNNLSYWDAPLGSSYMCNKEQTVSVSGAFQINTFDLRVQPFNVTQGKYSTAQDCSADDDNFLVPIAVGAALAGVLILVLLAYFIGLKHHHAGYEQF
# UniProt Q07954: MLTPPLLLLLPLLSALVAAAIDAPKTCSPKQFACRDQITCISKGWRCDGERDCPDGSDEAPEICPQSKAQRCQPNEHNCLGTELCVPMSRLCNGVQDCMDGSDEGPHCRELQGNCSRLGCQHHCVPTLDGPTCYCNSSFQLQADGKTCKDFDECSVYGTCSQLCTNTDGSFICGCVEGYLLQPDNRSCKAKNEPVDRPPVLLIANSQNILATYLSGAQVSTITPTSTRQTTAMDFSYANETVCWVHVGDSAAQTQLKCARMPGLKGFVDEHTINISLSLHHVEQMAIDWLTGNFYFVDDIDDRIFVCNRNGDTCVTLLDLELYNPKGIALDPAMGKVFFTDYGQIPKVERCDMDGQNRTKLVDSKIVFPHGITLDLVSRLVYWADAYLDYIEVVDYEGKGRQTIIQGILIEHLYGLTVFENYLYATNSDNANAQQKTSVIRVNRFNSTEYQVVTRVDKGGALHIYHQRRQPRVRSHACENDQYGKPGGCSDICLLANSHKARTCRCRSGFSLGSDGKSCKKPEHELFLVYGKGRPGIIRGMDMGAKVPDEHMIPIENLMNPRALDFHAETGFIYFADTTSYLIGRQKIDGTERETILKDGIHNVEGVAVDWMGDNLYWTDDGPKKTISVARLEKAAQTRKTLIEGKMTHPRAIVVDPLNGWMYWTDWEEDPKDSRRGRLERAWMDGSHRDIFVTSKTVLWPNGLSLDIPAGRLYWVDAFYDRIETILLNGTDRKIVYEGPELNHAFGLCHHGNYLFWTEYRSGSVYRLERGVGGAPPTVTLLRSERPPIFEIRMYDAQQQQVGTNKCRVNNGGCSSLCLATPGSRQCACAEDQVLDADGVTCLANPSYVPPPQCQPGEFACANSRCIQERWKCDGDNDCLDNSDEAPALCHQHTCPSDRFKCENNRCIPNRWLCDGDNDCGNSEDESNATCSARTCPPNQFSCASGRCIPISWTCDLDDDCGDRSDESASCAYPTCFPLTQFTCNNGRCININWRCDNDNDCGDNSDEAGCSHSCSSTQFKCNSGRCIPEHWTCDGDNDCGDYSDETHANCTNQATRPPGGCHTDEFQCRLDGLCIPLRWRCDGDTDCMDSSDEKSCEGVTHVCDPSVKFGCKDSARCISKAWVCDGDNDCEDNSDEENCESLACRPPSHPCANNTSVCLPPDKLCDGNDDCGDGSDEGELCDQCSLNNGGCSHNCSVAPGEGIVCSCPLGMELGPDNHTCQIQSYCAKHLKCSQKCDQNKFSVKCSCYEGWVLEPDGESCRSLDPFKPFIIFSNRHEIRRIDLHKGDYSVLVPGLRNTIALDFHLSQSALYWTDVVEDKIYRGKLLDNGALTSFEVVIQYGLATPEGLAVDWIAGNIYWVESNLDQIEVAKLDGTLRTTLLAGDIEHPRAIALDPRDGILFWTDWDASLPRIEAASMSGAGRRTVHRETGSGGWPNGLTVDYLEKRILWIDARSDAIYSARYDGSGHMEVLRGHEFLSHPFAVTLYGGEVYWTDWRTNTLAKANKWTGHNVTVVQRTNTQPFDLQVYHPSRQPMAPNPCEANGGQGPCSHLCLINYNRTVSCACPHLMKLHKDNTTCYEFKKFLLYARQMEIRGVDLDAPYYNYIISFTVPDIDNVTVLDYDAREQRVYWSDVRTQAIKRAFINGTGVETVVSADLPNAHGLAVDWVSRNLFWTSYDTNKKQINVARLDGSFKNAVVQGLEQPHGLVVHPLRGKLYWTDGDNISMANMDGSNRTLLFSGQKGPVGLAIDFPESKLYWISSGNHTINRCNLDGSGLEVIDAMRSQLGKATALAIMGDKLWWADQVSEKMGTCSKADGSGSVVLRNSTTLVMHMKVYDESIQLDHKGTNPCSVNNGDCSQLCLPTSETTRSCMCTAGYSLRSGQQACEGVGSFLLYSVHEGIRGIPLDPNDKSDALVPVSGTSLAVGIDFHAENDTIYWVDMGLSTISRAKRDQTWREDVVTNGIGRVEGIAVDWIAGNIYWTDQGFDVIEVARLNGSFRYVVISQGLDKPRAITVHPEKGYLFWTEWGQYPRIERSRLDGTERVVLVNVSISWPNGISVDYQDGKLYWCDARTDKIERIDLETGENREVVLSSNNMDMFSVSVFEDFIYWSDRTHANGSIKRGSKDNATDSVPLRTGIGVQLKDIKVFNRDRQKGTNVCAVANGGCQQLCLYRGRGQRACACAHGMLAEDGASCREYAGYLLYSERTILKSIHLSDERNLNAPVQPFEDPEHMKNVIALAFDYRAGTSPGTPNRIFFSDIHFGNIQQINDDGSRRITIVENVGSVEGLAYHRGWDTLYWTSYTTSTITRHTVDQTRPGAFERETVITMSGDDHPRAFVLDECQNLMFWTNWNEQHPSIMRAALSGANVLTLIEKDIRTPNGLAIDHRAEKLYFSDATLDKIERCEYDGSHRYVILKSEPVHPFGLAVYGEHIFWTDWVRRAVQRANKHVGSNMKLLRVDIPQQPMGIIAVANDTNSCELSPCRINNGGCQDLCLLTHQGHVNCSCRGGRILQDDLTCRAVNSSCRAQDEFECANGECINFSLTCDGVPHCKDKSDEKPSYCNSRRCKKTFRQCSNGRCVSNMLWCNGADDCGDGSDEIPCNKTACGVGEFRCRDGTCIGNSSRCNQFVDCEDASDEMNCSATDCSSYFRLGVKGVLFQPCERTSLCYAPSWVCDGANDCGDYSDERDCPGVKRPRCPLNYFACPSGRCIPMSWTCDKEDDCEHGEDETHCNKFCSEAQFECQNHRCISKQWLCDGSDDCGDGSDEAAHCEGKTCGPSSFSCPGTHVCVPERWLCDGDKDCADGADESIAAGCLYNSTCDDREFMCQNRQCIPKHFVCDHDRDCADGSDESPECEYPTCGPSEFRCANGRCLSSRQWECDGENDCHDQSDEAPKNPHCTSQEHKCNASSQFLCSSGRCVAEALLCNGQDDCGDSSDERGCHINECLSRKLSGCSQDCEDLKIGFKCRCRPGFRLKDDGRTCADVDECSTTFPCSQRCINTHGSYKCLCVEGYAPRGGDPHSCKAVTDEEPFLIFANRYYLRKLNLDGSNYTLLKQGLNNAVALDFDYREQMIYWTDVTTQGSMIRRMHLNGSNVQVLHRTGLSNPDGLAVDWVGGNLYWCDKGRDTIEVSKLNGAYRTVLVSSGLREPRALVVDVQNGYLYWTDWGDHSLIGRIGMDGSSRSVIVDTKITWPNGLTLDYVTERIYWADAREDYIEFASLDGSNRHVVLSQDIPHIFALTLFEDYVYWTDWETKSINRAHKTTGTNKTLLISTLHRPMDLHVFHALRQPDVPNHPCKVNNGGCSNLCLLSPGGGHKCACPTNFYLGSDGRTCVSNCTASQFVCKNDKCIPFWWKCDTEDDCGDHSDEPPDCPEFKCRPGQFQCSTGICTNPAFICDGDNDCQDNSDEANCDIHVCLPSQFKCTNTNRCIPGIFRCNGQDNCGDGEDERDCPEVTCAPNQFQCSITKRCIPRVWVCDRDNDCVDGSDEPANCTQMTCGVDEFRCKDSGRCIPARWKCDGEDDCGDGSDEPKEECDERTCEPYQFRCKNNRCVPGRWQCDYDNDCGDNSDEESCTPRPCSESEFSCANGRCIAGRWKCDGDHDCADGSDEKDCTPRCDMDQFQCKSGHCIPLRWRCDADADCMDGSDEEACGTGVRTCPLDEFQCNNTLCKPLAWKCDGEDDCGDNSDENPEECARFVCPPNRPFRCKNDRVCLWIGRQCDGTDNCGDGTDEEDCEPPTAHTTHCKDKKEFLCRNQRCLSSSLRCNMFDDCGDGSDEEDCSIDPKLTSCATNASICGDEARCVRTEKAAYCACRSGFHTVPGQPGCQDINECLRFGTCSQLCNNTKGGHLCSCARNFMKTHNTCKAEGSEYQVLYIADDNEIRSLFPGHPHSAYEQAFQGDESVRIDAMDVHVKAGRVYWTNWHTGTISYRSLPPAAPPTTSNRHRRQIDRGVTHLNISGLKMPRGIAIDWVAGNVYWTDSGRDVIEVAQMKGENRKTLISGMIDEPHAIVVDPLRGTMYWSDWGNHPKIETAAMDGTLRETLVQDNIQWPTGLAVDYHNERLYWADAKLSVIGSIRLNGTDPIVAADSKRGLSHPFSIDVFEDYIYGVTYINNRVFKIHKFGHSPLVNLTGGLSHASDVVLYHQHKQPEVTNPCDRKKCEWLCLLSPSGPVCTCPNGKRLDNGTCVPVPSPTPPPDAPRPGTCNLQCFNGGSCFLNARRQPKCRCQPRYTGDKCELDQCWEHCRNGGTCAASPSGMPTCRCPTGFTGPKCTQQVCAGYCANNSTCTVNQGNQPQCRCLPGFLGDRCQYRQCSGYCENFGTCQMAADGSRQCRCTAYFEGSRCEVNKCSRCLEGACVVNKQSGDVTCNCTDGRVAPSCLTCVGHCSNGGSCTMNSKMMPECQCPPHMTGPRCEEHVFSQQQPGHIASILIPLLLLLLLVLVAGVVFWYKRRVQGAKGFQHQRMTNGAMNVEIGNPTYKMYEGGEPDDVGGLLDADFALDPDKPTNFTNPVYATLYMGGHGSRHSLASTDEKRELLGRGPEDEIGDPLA
# UniProt P61968: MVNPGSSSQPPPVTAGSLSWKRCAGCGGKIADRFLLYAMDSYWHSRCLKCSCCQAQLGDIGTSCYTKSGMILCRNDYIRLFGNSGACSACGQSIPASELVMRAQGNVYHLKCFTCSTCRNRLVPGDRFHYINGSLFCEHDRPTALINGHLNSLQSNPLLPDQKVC
# UniProt O75427: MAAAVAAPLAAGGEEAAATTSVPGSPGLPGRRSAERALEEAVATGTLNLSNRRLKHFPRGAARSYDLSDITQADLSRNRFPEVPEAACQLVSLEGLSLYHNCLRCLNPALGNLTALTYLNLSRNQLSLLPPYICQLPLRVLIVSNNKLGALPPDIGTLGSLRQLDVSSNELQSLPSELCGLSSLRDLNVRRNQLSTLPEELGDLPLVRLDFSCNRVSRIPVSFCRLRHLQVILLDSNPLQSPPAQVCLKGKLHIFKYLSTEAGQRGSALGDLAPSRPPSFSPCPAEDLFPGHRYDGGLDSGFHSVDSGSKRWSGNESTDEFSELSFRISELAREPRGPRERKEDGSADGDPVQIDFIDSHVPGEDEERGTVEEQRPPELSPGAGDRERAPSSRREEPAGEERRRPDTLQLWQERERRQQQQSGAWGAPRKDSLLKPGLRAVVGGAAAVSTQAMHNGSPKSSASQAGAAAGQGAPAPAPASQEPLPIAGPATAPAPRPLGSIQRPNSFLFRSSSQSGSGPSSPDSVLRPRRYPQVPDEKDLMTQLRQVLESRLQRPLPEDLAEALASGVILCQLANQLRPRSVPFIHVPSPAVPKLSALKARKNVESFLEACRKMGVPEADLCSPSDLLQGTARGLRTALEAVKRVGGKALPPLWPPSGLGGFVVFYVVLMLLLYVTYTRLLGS
# Compound: NC1(c2ccc(-c3nc4ccn5c(=O)[nH]nc5c4cc3-c3ccccc3)cc2)CCC1
# Test: log2 fold change, soluble protein after heating vs DMSO (PISA); higher = thermal stabilisation; K562 cells, 10 uM, 30 min; active = over 0.2 and 3.5 SD of the protein, either way, in both replicates (recomputed)
# How it was run: (§1)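 Soluble protein was defined as the supernatant after 21,000xg for 90 min. It came from K562 cells at 2×10^6 cells/mL given 10 μM compound for 30 min, heated in aliquots for 3 min across 48°C-58°C, pooled, and extracted in PBS with 0.5% NP-40 at 4°C, and was quantified by TMTpro 16plex LC-MS/MS with equalised channel sums. Thermal stability against control samples, from duplicates, is reported as log2 fold change.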
row,Target,log2 fold change
1,LAMB2 (UniProt P55268),inactive: -0.187
2,LEPROTL1 isoform 2 (UniProt O95214),inactive: -0.248
3,LRRC14 (UniProt Q15048),inactive: -0.014
4,LOR (UniProt P23490),inactive: 0.183
5,LIN52 (UniProt Q52LA3),inactive: 0.294
6,LLGL2 (UniProt Q6P1M3),inactive: 0.097
7,L1TD1 (UniProt Q5T7N2),inactive: -0.341
8,LGALSL (UniProt Q3ZCW2),inactive: -0.035
9,LAMA2 (UniProt P24043),inactive: -0.006
10,LBH (UniProt Q53QV2),inactive: 0.079
11,LGALS3 (UniProt P17931),inactive: -0.064
12,KXD1 (UniProt Q9BQD3),inactive: -0.237
13,LAMP2 isoform 2 (UniProt P13473),inactive: -0.321
14,LRP1 (UniProt Q07954),inactive: -0.163
15,LOX (UniProt P28300),inactive: -0.086
16,LEPROT (UniProt O15243),inactive: -0.088
17,LAMA5 (UniProt O15230),inactive: 0.198
18,LMO4 (UniProt P61968),inactive: -0.111
19,LIPT1 (UniProt Q9Y234),inactive: 0.35

# Compound: NCC(=O)Nc1ccc(-n2nc(C(F)(F)F)cc2-c2ccc3c(ccc4ccccc43)c2)cc1
# Test: as above
# How it was run: as §1
row,Target,log2 fold change
1,LEPROTL1 isoform 2 (UniProt O95214),inactive: 0.141
2,LRRC42 (UniProt Q9Y546),inactive: -0.257
3,LRRC14 (UniProt Q15048),inactive: -0.269
4,KXD1 (UniProt Q9BQD3),inactive: -0.021
5,LAMP2 isoform 2 (UniProt P13473),inactive: -0.132
6,LHFPL2 (UniProt Q6ZUX7),inactive: 0.042
7,LRP5 (UniProt O75197),inactive: -0.074
8,LRP1 (UniProt Q07954),inactive: -0.025
9,LAMA5 (UniProt O15230),inactive: -0.043

# Compound: Nc1ccccc1NC(=O)c1ccc(CNC(=O)OCc2cccnc2)cc1 [entinostat]
# Test: as above
# How it was run: as §1
row,Target,log2 fold change
1,LAPTM4A (UniProt Q15012),inactive: -0.085
2,LARGE2 (UniProt Q8N3Y3),inactive: 0.031
3,LLGL1 (UniProt Q15334),inactive: -0.019
4,LDHC (UniProt P07864),inactive: -0.026
5,"LARP1B, A0A3B3ISF0",inactive: 0.17
6,LPP (UniProt Q93052),inactive: -0.038
7,LIN28A (UniProt Q9H9Z2),inactive: -0.075
8,LRCH4 (UniProt O75427),inactive: 0.086
9,LIMK1 (UniProt P53667),inactive: 0.065

# Compound: O=C(CCCCCCC(=O)Nc1ccccc1)NO [vorinostat]
# Test: as above
# How it was run: as §1
row,Target,log2 fold change
1,LRRC42 (UniProt Q9Y546),inactive: 0.037
2,LATS1 (UniProt O95835),inactive: 0.08
3,LLGL2 (UniProt Q6P1M3),inactive: -0.004
4,L1TD1 (UniProt Q5T7N2),inactive: 0.524
5,"LARP1B, A0A3B3ISF0",inactive: 0.145
6,LGALS3 (UniProt P17931),inactive: 0.048
7,KXD1 (UniProt Q9BQD3),inactive: -0.046
8,LAMP2 isoform 2 (UniProt P13473),inactive: -0.113
9,LRP5 (UniProt O75197),inactive: -0.113
10,LRP1 (UniProt Q07954),inactive: 0.246
11,LAPTM5 (UniProt Q13571),inactive: 0.042
12,LGMN (UniProt Q99538),inactive: 0
13,LIN28A (UniProt Q9H9Z2),inactive: 0.136
14,LEPROT (UniProt O15243),inactive: -0.142
15,LAMC1 (UniProt P11047),inactive: 0.035
16,LRCH4 (UniProt O75427),inactive: -0.314
17,LAMA5 (UniProt O15230),inactive: 0.015
18,LMO4 (UniProt P61968),inactive: -0.014

# Compound: O=C(CCCCCCNC(=O)c1cnc(N(c2ccccc2)c2ccccc2Cl)nc1)NO [citarinostat]
# Test: as above
# How it was run: as §1
row,Target,log2 fold change
1,LINC00526 (UniProt Q96FQ7),inactive: 0.114
2,LEPROTL1 isoform 2 (UniProt O95214),inactive: 0.051
3,LRRC14 (UniProt Q15048),inactive: 0.022
4,LOR (UniProt P23490),inactive: 0.059
5,LLGL2 (UniProt Q6P1M3),inactive: -0.02
6,LGALS3BP (UniProt Q08380),inactive: -0.081
7,"LARP1B, A0A3B3ISF0",inactive: -0.414
8,LGALS3 (UniProt P17931),inactive: -0.01
9,KXD1 (UniProt Q9BQD3),inactive: 0.042
10,LAMP2 isoform 2 (UniProt P13473),inactive: 0.061
11,LRP1 (UniProt Q07954),inactive: -0.1
12,LEPROT (UniProt O15243),inactive: 0.125
13,LRCH4 (UniProt O75427),inactive: -0.47
14,LMO4 (UniProt P61968),inactive: 0.128

# Compound: O=C(O)c1ccc2c(c1)nc(Nc1cccc(Cl)c1)c1ccncc12 [silmitasertib]
# Test: as above
# How it was run: as §1
row,Target,log2 fold change
1,LAMB2 (UniProt P55268),inactive: -0.021
2,LEPROTL1 isoform 2 (UniProt O95214),inactive: 0.123
3,LRRC14 (UniProt Q15048),inactive: 0.022
4,LOR (UniProt P23490),inactive: 0.028
5,LIN52 (UniProt Q52LA3),inactive: -0.045
6,LLGL2 (UniProt Q6P1M3),inactive: 0.111
7,L1TD1 (UniProt Q5T7N2),inactive: -0.308
8,LGALSL (UniProt Q3ZCW2),inactive: 0.191
9,LAMA2 (UniProt P24043),inactive: -0.086
10,LBH (UniProt Q53QV2),inactive: -0.011
11,LGALS3 (UniProt P17931),inactive: -0.02
12,KXD1 (UniProt Q9BQD3),inactive: -0.113
13,LAMP2 isoform 2 (UniProt P13473),inactive: 0.003
14,LRP1 (UniProt Q07954),inactive: 0.209
15,LOX (UniProt P28300),inactive: 0.187
16,LEPROT (UniProt O15243),inactive: 0.005
17,LAMA5 (UniProt O15230),inactive: -0.131
18,LMO4 (UniProt P61968),inactive: 0.015
19,LIPT1 (UniProt Q9Y234),inactive: 0.282
